Article PMC3044754
These are yes or no findings as the source states them, for the method shown. Binding seen in cells or lysates may run through a third protein. Some entries that bind do so weakly or less than the wild type.

Key:
[1] = target: endogenous WT1 (human (endogenous in human podocytes)) (UniProt P19544); experiment: co-IP; endogenous proteins; human podocytes treated with TGF-β1 (2 ng/ml) for 24 h; lysates immunoprecipitated with anti-WT1, blotted with anti-PINCH1
[2] = target: Flag-tagged wild-type PINCH1 (pFlag-PINCH1-wt) (UniProt P48059); experiment: co-IP; human podocytes transfected with Flag-PINCH1 for 48 h; lysates immunoprecipitated with anti-Flag overnight at 4°C, blotted for endogenous WT1

| binding [1] | binding [2] | Substance |
| --- | --- | --- |
| binds |  | endogenous PINCH1 (from UniProt P48059 1-325) |
|  | binds | endogenous WT1 (from UniProt P19544 1-449) |
